These results are taken from doi:10.1101/2025.11.12.688108.

The experiment concerns the target T1, Dishevelled 2, wild type (WT-Dvl2) (UniProt P51142).
T1 sequence: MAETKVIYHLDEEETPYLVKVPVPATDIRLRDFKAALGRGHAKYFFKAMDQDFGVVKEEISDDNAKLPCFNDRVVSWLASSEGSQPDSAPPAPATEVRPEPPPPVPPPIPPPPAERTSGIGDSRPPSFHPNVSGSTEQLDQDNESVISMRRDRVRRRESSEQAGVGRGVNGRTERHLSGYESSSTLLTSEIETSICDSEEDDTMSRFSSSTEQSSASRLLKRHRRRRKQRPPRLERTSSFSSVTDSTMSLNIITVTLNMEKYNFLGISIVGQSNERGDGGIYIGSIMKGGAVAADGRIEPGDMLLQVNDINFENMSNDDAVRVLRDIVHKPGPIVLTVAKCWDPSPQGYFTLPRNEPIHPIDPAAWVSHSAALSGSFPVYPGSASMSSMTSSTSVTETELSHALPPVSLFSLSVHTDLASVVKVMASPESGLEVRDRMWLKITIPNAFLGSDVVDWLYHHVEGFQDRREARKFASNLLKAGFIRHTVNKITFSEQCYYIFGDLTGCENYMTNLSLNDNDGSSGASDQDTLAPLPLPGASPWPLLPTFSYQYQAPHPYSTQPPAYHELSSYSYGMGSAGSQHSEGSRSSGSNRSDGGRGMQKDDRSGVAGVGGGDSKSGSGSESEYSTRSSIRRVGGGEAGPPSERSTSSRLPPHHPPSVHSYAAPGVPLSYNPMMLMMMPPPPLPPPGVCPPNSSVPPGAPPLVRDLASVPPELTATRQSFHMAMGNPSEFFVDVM
The experiment can be described thus: co-IP.

No constants are given. Whether binding was seen depends on the method and setting. In cells and extracts the contact can be indirect. Binding can be weak; no strength is given.

Turning to Protein Kinase C delta (PKCδ) (enzyme), the binding entry is “binds”.
